# Data taken from PubChem BioAssay AID540256 (National Center for Advancing Translational Sciences (NCATS), 2011).
# In all, about 300,000 compounds went through this assay and about 3,700 (1.2%) were called active. Inconclusive results, whose numbers are uncertain, are shown with a selection of clear calls. Calls come from the whole dose curve; tested in HEK293 cells. Potencies of inconclusive entries are doubtful fits and often do not repeat.
# Assay: qHTS for Inhibitors of binding or entry into cells for Lassa Virus; note: nearly all actives have a fitted effect of over 50% in size
# Conditions: Lassa virus pseudotype entry inhibition, cell reporter; series mostly up to 37.9 µM
# Potency is the fitted concentration of half-maximal effect.
row,Structure (SMILES),Potency
1,O=C1NC(=O)N2CCSC2(Cc2ccccc2)N1 (centres undefined),inactive
2,CC(C)n1nc(C(=O)Nc2nc3ccccc3[nH]2)c2ccccc2c1=O,"inconclusive: 35.5 µM [inhibitor, single point]"
3,Cc1cccc(-n2c(SCC(N)=O)nnc2-c2ccccn2)c1C,"inconclusive: 0.259 µM [activator, single point]"
4,CCOc1ccccc1NC(=O)/C(C#N)=C/c1c(C)nn(-c2ccccc2)c1Cl,"inconclusive: 0.447 µM [inhibitor, partial curve, poor fit]"
5,Cc1ccc(NC(=O)Cn2nc(-c3ccccc3)nc(Cc3ccc(Cl)cc3)c2=O)cc1,inactive
6,Cn1c(=O)cc(SCC(=O)NCC2COc3ccccc3O2)c2ccccc21 (centres undefined),"inconclusive: 0.82 µM [inhibitor, full curve, poor fit]"
7,N/C(Cc1cccc2ccccc12)=N\O,inactive
8,CC(C)CC(=O)NC(c1cccs1)c1ccc2cccnc2c1O (centres undefined),"inconclusive: 15.8 µM [inhibitor, partial curve, poor fit]"
9,O=C1c2ccccc2NC(c2cccs2)N1O (centres undefined),"inconclusive: 3.55 µM [activator, partial curve]"
10,O=C(CCCn1c2ccccc2c(=O)c2ccccc21)Nc1cccc(Cl)c1,"inconclusive: 10 µM [inhibitor, partial curve, poor fit]"
11,COc1cccc(CNC(=O)c2cc3c(-c4ccccc4F)nn(C)c3s2)c1,"inconclusive: 35.5 µM [inhibitor, single point]"
12,Cc1nn(CCCC(=O)Nc2cccnc2)c(C)c1[N+](=O)[O-],"inconclusive: 10 µM [activator, partial curve, poor fit]"
13,CCOC(=O)c1cccc(NC(=O)CCSCCc2ccccn2)c1,inactive
14,N/C(=N\OC(=O)COc1ccc2ccccc2c1)c1ccccn1,"inconclusive: 9.2 µM [inhibitor, partial curve, poor fit]"
15,COC(=O)c1ccc(NC(=O)CSc2nnc(C)n2CC2CCCO2)cc1 (centres undefined),"inconclusive: 35.5 µM [inhibitor, single point]"
16,CCCCn1c2nc3ccccc3nc2c2c(=O)n(C(C)CC)cnc21 (centres undefined),inactive
17,Cn1cc(C(=O)c2ccc(Cl)cc2Cl)cc1C(=O)N/N=C(\N)COc1cccc(C(F)(F)F)c1,"inconclusive: 35.5 µM [inhibitor, single point]"
18,CC1CN(S(=O)(=O)c2cccc(C(=O)OCCOc3ccccc3)c2)CC(C)O1 (centres undefined),"inconclusive: 35.5 µM [inhibitor, partial curve, poor fit]"
19,CC(=O)Nc1ccc(S(=O)(=O)NCCc2ccccn2)cc1,inactive
20,Cc1onc(-c2ccccc2)c1C(=O)Nc1nnc(-c2ccncc2)s1,"inconclusive: 23.1 µM [activator, single point]"
21,C[C@@H]1CC2=CCCC2[C@]2(O1)C(=O)N(Cc1ccc(Br)cc1)c1cccc(Br)c12 (some centres undefined),inconclusive: 0.0007 µM [inhibitor]
22,Cc1ccnc(NC(=O)CNC(=O)COc2ccccc2)c1,"inconclusive: 8.91 µM [activator, partial curve, poor fit]"
23,COc1ccc(C(C(=O)NC2CCCCC2)N(Cc2ccco2)C(=O)c2snc(C(N)=O)c2N)cc1 (centres undefined),"inconclusive: 17.8 µM [inhibitor, single point]"

row,Structure (SMILES),Potency
1,Cc1cc(C)nc(Nc2ccc(Br)cc2C(=O)O)n1,inactive
2,CCc1cccc(NC(=O)CCc2nc3sc4c(c3c(=O)[nH]2)CCCC4)c1,"inconclusive: 8.91 µM [activator, partial curve, poor fit]"
3,CCCN=C(N)/C(C(=O)OCC)=C(\O)c1ccc(OC)cc1,inactive
4,CCOc1ccc(-c2nc3c(c(SCC(=O)Nc4ccccc4C)n2)Cc2ccccc2O3)cc1,inactive
5,COc1ccc(NC(=O)c2scc(S(=O)(=O)C(C)C)c2N)cc1,"inconclusive: 10 µM [inhibitor, partial curve, poor fit]"
6,c1ccc(COc2ccc(OCCCn3cncn3)cc2)cc1,inactive
7,Cc1ccc(-c2ccc(/C=N\NC(=O)C3C(=O)NCC3c3ccccc3)o2)cc1Cl (centres undefined),"inconclusive: 12.6 µM [inhibitor, single point]"
8,CCCCOc1ccc(N(CC(=O)NC2CCCCC2)C(=O)c2snc(C(N)=O)c2N)cc1,"inconclusive: 11.2 µM [inhibitor, partial curve, poor fit]"
9,CN(C)c1ccc(C=NNC(=O)c2cccc3ccccc23)c(Cl)c1,"inconclusive: 0.708 µM [inhibitor, full curve, poor fit]"
10,COc1ccc(-c2noc(-c3ccc(Br)o3)n2)cc1OC,"inconclusive: 23.1 µM [activator, partial curve, poor fit]"
11,O=C1COc2ccc(C(=O)COC(=O)C3CC(O)CN3S(=O)(=O)c3ccc(Cl)cc3)cc2N1 (centres undefined),"inconclusive: 0.0651 µM [inhibitor, full curve, poor fit]"
12,COC(=O)c1cccc(CSc2nc3ccccc3[nH]2)c1,"inconclusive: 20.6 µM [inhibitor, single point]"
13,CCOC(=O)c1ccc(NC(=O)c2cnc3c(-c4ccc(F)cc4)c(C)nn3c2C)cc1,inactive
14,COc1ccc(-n2nc(C(=O)Nc3ccccn3)c3c4ccccc4n(C)c3c2=O)cc1,inactive
15,CC(C)CCNC(=O)c1cc2c(s1)-c1ccccc1S(=O)(=O)C2,"inconclusive: 11.2 µM [inhibitor, single point]"
16,CCCCOc1ccc(-c2cn3ccccc3n2)cc1[N+](=O)[O-],"inconclusive: 10.3 µM [inhibitor, partial curve, poor fit]"
17,COc1cccc(NC(=O)CNC(=O)c2ccccc2)c1,inactive
18,Cc1ccc(C(=O)c2cn(CC(=O)Nc3ccc(C(C)C)cc3)c3nc(C)ccc3c2=O)cc1,"inconclusive: 35.5 µM [activator, single point]"
19,COc1ccc(C(=O)NNC(=O)CN2CCC(n3nnc4cc(C(F)(F)F)ccc43)CC2)cc1,inactive
20,COc1ccccc1OCC(=O)NCc1cccs1,"inconclusive: 25.9 µM [activator, partial curve, poor fit]"
21,CCCCCn1c(NCc2ccc(OC)cc2)nc2ccccc21,"inconclusive: 35.5 µM [inhibitor, single point]"
22,O=C(NC1CCCC1)c1cc(-c2ccc(Cl)cc2Cl)on1,"inconclusive: 20 µM [inhibitor, single point]"
23,Nc1c(C(=O)NCc2ccco2)sc2nc3c(cc12)C(=O)CCC3,inactive

# Reprinted at random: 4 records from the list.
row,Structure (SMILES),Potency
6,c1ccc(COc2ccc(OCCCn3cncn3)cc2)cc1,inactive
11,O=C1COc2ccc(C(=O)COC(=O)C3CC(O)CN3S(=O)(=O)c3ccc(Cl)cc3)cc2N1 (centres undefined),"inconclusive: 0.0651 µM [inhibitor, full curve, poor fit]"
17,COc1cccc(NC(=O)CNC(=O)c2ccccc2)c1,inactive
2,CCc1cccc(NC(=O)CCc2nc3sc4c(c3c(=O)[nH]2)CCCC4)c1,"inconclusive: 8.91 µM [activator, partial curve, poor fit]"

# Going on with the list:

row,Structure (SMILES),Potency
1,COC(=O)c1ccc(N=NNc2ccccc2)cc1,"inconclusive: 2.59 µM [activator, full curve, poor fit]"
2,Clc1ccc(OCc2nc(-c3ccccn3)no2)c(Br)c1,active: 9.2 µM
3,CCOc1ccc(C(=O)Cn2c(=O)n3nc(CCn4nc(C)cc4C)nc3c3cc(OC)c(OC)cc32)cc1,inactive
4,CCOC(=O)c1sc(NC(=S)NC(=O)C2CCCC2)cc1C,"inconclusive: 12.6 µM [activator, single point]"
5,COc1cccc(C(=O)NNC(=O)/C=C/c2ccccc2)c1,"inconclusive: 25.1 µM [activator, single point]"
6,C=CCOn1c(=O)c(-c2ccc(OC)cc2)[n+]([O-])c2ccccc21,inactive
7,O=C(NN=Cc1c(O)ccc2ccccc12)c1ccncc1,active: 3.16 µM
8,O=[N+]([O-])c1ccc(O)c(C=Nc2ccc3c(c2)OCCO3)c1,inactive
9,CCn1c(SCC(=O)c2ccc(NC(C)=O)c(OC)c2)nnc1-c1ccc(NS(C)(=O)=O)cc1,"inconclusive: 0.631 µM [activator, full curve, poor fit]"
10,COc1ccc(C(=O)NNC(=O)c2ccccc2[N+](=O)[O-])cc1[N+](=O)[O-],"inconclusive: 0.562 µM [activator, single point]"
11,CC(=O)Nc1ccc(Sc2ncccc2C(=O)Nc2cc(Cl)cc(Cl)c2)cn1,inactive
12,CN(C)CCO/N=C(\c1ccc(Br)cc1)c1cccnc1,"inconclusive: 5.62 µM [activator, single point]"
13,Cc1ccc(Cn2c(N3CCCCCC3)nc3c2c(=O)[nH]c(=O)n3C)cc1,inactive
14,S=C(Nc1ccc(Cl)c(Cl)c1)N1CCOCC1,inactive
15,N#Cc1ccccc1OCc1cn(CC(=O)c2ccc(O)cc2)nn1,"inconclusive: 0.0705 µM [activator, full curve, poor fit]"
16,COc1ccccc1-n1c(SCC(=O)Nc2cc(C)on2)nc2c([nH]c3ccccc32)c1=O,"inconclusive: 1.12 µM [activator, partial curve, poor fit]"
17,O=C(O)c1cccc(-n2c(/C=C/c3ccccc3)nc3ccccc3c2=O)c1,"inconclusive: 7.94 µM [inhibitor, partial curve, poor fit]"
18,O=C(Nc1ccc(Cl)cc1)Nc1ccc(N2CCC(C(F)(F)F)CC2)nc1,inactive
19,O=C(NCCc1ccc(F)cc1)c1ccc(S(=O)(=O)N2CCCCC2)cc1,"inconclusive: 7.08 µM [inhibitor, partial curve, poor fit]"
20,CC12CC[C@H]3[C@@H](CCC4(O)C[C@H](O)CCC34/C=N/NC(=O)Cc3ccccc3)C1(O)CCC2C1=CC(=O)OC1 (some centres undefined),"inconclusive: 10 µM [inhibitor, partial curve, poor fit]"
21,Cc1ccc(Cl)cc1NC(=O)C1CCN(c2nnc(C)c3c(C)n(-c4ccccc4)nc23)CC1,inactive
22,CNCCCCOc1ccccc1-c1ccccc1,"inconclusive: 16.4 µM [inhibitor, single point]"
23,S=C(NCc1ccc(Cl)cc1)NC12CC3CC(CC(C3)C1)C2,"inconclusive: 11.2 µM [inhibitor, partial curve, poor fit]"
